In PubChem BioAssay AID1259415 (National Center for Advancing Translational Sciences (NCATS), 2018):
Among all 410,000 compounds or so, about 18,000 (4.4%) were called active. The shares of active, inactive and inconclusive entries below differ from those in the screen. Cut-off read from the data, not from the text of the source: active = activity change below about -60%; inconclusive = no clear call, values can overlap the other calls; inactive = above about -39%.

Test: qHTS Assay for inhibitors of the human cytomegalovirus (HCMV)
Details: HFF cells, HCMV-luciferase reporter, 72 h; at 57.5 µM; stronger effect = lower value
How it was run: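 Cell-based, HFFs, 1000 cells/well, 16 h 37C; cpds in DMSO + HCMV-luc, MOI 1 PFU/cell; 72 h 37C; OneGlo luminescence after 5 min RT; norm. to buffer vs Salinomycin 10uM.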
% is set by controls: 0 for no effect and ±100 for the full control effect.

Row | SMILES | activity change, negative = inhibition
1 | CC(C)CN1Cc2ccccc2Oc2cc(Br)ccc2S1(=O)=O | inconclusive: -40.4%
2 | CS(=O)(=O)c1nc(S(=O)(=O)c2ccc(Cl)cc2)c(N2CCCCC2)s1 | inconclusive: -52.5%
3 | Cc1nnc(SCC2=C(C(=O)O)N3C(=O)C(NC(=O)c4cc(F)c(F)cc4Cl)C3SC2)s1 (stereo not drawn) | inactive: -17.6%
4 | COc1ccc(C(=O)On2c(-c3ccc(Br)cc3)nc3ccccc3c2=O)cc1 | inconclusive: -42.7%
5 | CS(=O)(=O)N1CCCC(c2nc(-c3ccc(S(=O)(=O)NCc4ccccc4)cc3)no2)C1 (stereo not drawn) | active: -94.8%
6 | Cc1ccc(C(=O)Oc2ccccc2N2CCOCC2)cc1 | inconclusive: -56.3%
7 | O=C(CSc1cc(Cl)ccc1Cl)NC1CCCc2ccccc21 (stereo not drawn) | inconclusive: -44.7%
8 | Cc1onc(-c2c(Cl)cccc2Cl)c1C(=O)N1CCCc2ccccc21 | inconclusive: -48.8%
9 | CC1CCCCN1S(=O)(=O)c1ccc(C(=O)Nc2nnc(-c3ccco3)o2)cc1 (stereo not drawn) | active: -70.2%
10 | CN(C(=O)c1cccc(NC(=O)Cc2ccc(NC(=O)C3CCCN(C(=O)CCc4ccccc4)C3)cc2)c1)C1CCCCC1 (stereo not drawn) | active: -75.3%
11 | Cc1cccc2cc(CN(Cc3cccs3)S(=O)(=O)c3ccc4c(c3)OCCO4)c(=O)[nH]c12 | active: -83.9%
12 | COc1cc(CN(C)c2ncnc3sccc23)ccc1OC(F)F | inconclusive: -51%
13 | COc1ccc(N(C(=O)c2ccc3c(c2)OCO3)C2C=CS(=O)(=O)C2)c(OC)c1 (stereo not drawn) | inconclusive: -42.2%
14 | O=[N+]([O-])c1ccc(Sc2cccc3cccnc23)c([N+](=O)[O-])c1 | active: -106%
15 | O=C(OCCN1CCCCC1)c1ccc(Cl)cc1 | inactive: -2.95%
16 | CNS(=O)(=O)c1ccc(C)cc1 | inconclusive: -51.8%
17 | Cc1ccc(C)c(C(C)NC(=S)NC2CCCCC2)c1 (stereo not drawn) | inconclusive: -54.4%
18 | COc1ccccc1CN(CC(=O)NCc1ccco1)C(=O)CNS(=O)(=O)c1ccccc1 | inconclusive: -45.6%
19 | NS(=O)(=O)c1cccc(NC(=O)COC(=O)c2cc(-c3ccc(Cl)cc3)nc3ccccc23)c1 | inconclusive: -53.5%
20 | CCOC(=O)c1ccc(NC(=O)c2nsc3ccccc23)cc1 | active: -77.8%
21 | COc1ccc(C(=O)c2sc(Nc3ccccc3)nc2N)cc1OC | active: -92.1%
22 | NS(=O)(=O)c1ccc(Cl)c(S(N)(=O)=O)c1 | inconclusive: -54.1%

Row | SMILES | activity change, negative = inhibition
23 | Cc1ccccc1C(=O)NC=C1C(=O)OC(C)(C)OC1=O | inconclusive: -40.8%
24 | CN(C)CC(C)(C)CNC(C(=O)Nc1ccc(Cl)cc1C(F)(F)F)c1ccccc1 (stereo not drawn) | inactive: 12.2%
25 | CN(CCOc1ccccc1)CC(=O)Nc1cccc(C#N)c1 | active: -64.5%
26 | CCN(CC)CCCNC(=O)/C(=C\c1cccn1C)NC(=O)c1cccs1 | inconclusive: -46.8%
27 | CC12CCC3C(CCC4CC(=O)CCC43C)C1CC(=NO)C2=O (stereo not drawn) | inactive: 16.3%
28 | COc1ccc(OC)c(/C=C/C(=O)Oc2ccc(C(C)=O)cc2)c1 | inconclusive: -52.2%
29 | CCn1c(C)nc2cc(C(=O)N/N=C/c3ccc(N4CCOCC4)cc3)ccc21 | inconclusive: -43.2%
30 | CCCS(=O)(=O)c1c(S(=O)(=O)CCC)c2ccc(C(N)=O)cn2c1C(=O)c1ccc(OC)cc1 | inactive: -6.98%
31 | N#CCCNc1c(Cl)cc(Cl)cc1C(=O)O | inactive: -27%
32 | O=C(O)/C(=C/c1cccnc1)NC(=O)c1ccccc1 | inactive: 6.75%
33 | CCOC(=O)N1CCN(c2c(Nc3ccc4c(c3)OCCO4)c(=O)c2=O)CC1 | inconclusive: -51.5%
34 | CCOc1cc(C(=S)N2CCC(O)CC2)ccc1OS(=O)(=O)c1ccc(Br)cc1 | inconclusive: -57%
35 | O=C(c1cn(-c2ccccc2)nc1-c1ccccc1)N1CCN(c2ccccn2)CC1 | inactive: -18.9%
36 | COc1ccccc1-c1cc(C(F)(F)F)nc(S(=O)(=O)CCCC(=O)NC(C)C)n1 | inactive: -22%
37 | O=C(N/N=C/c1cccnc1)c1ccccc1OCc1ccc(Br)cc1 | inconclusive: -52%
38 | CCOc1ccc(NC(=O)c2ccc3c(c2)c(C)c(C)n3Cc2ccc(F)cc2)cc1 | inconclusive: 0%
39 | Cc1ccc(N2CCN(c3cc(C)nc4c(-c5ccc(Cl)cc5)c(C)nn34)CC2C)cc1 (stereo not drawn) | inconclusive: -41.3%
40 | Cc1cc(N=Cc2c(O)n(-c3ccc4c(c3)OCO4)c(=O)c3ccccc23)ccn1 | active: -91.8%
41 | Cc1cccn2c(=O)c3cc(C#N)c(=O)n(Cc4cccnc4)c3nc12 | inconclusive: -52.4%
42 | COc1ccccc1OCCC(=O)OCC(=O)c1[nH]c(C)c(C(C)=O)c1C | inactive: -27.3%
43 | Nc1c(Cl)cc(C2=NCCn3c2c2ccc([N+](=O)[O-])cc2[n+]3[O-])cc1Cl | inconclusive: -42.5%

By substructure: those above with a CF3 group.
Row | SMILES | activity change, negative = inhibition
24 | CN(C)CC(C)(C)CNC(C(=O)Nc1ccc(Cl)cc1C(F)(F)F)c1ccccc1 (stereo not drawn) | inactive: 12.2%
36 | COc1ccccc1-c1cc(C(F)(F)F)nc(S(=O)(=O)CCCC(=O)NC(C)C)n1 | inactive: -22%
